This assay concerns the target Salmonella typhi OmpF (Salmonella typhi). Nature of the assay: phage display panning (Ph.D-7 library, 3 rounds) on purified porin coated on ELISA wells.

Results are given in words; binding and its absence hold for the method and conditions named. A result given as binding can be weak or reduced; the word gives no strength.

Consider two molecules from patent US20110104191A1.

For the molecule FHEFWPT [OmpF affinity peptide FHEFWPT], the binding result is reported as “binds”.
The value for FHENWPS [OmpF affinity peptide FHENWPS] was “binds”.
